Some of the results follow.
Compound: Cc1cc(ccc1-c1ccccc1)C(=O)N1CCCN(CC1)C(=O)CCl [compound 10]
Test: probe-labelled cysteine peptide fold change vs DMSO (competition) (log2 fold change); higher = less target engagement (more negative = stronger competition)
Conditions: THP-1, incubation time: 4 h
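Note: competitive profiling in live THP-1 cells: cysteine peptides tagged with an iodoacetamide desthiobiotin (IA-DTB) probe, intensity after compound treatment relative to DMSO-treated cells.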

Amino acid sequences for entries named in this document (tags omitted). A change or cut given only in a name is not applied to a line headed by its entry.
UniProt Q6P1N9: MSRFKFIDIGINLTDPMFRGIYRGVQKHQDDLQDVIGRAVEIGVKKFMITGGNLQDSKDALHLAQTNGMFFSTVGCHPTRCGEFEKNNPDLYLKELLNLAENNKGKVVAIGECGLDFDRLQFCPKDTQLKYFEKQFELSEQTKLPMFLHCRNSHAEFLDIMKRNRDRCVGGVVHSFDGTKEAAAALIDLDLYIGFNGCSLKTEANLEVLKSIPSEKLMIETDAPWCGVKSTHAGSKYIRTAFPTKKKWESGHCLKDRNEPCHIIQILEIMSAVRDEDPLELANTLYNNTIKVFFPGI
UniProt Q9Y4P3: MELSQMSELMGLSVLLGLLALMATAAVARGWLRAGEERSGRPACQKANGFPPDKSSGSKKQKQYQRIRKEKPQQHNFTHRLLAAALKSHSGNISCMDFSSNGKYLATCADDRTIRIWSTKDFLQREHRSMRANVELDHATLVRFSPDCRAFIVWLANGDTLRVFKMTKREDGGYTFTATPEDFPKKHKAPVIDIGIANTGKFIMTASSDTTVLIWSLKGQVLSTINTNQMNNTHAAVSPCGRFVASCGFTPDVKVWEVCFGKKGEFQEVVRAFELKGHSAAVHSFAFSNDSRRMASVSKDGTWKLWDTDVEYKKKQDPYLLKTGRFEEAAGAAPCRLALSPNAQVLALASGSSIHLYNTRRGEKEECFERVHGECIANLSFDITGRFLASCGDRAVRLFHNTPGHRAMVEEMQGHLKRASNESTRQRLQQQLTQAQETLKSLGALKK
UniProt Q9NUY8: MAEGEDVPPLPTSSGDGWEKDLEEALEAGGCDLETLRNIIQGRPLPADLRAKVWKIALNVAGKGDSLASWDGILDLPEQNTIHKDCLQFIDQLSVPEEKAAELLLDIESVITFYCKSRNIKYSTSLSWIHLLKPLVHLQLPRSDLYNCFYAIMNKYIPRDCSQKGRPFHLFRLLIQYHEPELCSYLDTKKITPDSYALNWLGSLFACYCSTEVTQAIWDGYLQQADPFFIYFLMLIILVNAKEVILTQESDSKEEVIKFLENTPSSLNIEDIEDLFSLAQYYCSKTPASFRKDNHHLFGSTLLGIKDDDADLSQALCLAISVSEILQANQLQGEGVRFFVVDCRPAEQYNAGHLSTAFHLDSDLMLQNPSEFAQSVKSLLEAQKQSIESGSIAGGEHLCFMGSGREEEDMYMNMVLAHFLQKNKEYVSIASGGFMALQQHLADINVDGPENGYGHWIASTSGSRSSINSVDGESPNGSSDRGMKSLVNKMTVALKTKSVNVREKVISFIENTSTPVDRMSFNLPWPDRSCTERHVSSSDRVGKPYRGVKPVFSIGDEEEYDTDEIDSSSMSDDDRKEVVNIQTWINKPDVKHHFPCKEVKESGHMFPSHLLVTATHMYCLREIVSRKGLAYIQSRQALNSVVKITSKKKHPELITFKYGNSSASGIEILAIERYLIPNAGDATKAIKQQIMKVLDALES
UniProt Q66K14, whole entry, looked up: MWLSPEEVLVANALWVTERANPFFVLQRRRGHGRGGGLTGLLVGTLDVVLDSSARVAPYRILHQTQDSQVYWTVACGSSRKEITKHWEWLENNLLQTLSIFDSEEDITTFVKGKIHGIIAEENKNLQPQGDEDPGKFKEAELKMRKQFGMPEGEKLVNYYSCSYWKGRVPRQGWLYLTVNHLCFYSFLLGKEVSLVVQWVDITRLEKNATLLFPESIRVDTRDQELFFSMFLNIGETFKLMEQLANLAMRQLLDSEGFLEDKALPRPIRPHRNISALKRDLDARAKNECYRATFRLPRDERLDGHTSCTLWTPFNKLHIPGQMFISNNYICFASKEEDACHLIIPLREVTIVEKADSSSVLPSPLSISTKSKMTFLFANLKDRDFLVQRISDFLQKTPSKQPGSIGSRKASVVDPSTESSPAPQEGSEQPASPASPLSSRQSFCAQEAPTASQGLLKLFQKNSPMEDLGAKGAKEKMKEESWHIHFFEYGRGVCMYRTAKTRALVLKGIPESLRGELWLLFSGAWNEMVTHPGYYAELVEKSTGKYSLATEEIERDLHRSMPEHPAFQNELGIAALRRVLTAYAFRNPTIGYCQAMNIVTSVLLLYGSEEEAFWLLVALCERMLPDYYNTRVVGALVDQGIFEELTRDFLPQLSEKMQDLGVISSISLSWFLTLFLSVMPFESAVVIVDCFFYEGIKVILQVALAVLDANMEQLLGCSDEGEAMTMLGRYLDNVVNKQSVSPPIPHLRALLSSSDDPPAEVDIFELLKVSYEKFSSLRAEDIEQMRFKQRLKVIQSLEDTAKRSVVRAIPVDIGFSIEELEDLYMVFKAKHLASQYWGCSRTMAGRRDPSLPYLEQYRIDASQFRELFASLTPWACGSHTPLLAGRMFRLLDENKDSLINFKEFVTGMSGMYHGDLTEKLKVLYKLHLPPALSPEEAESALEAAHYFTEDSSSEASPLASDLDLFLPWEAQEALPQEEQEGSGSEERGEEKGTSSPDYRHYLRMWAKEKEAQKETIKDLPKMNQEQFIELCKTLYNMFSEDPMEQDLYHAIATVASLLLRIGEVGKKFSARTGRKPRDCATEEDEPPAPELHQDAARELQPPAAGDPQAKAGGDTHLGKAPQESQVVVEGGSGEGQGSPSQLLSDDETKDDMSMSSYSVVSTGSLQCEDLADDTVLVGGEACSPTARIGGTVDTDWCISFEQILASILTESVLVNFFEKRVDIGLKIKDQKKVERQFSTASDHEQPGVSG
UniProt Q969E4: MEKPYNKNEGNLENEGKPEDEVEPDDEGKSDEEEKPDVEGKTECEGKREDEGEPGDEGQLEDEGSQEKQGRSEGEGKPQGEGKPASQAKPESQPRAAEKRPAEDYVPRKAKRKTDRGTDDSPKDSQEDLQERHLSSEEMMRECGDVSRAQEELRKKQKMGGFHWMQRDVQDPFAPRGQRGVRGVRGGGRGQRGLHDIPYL
UniProt O14776: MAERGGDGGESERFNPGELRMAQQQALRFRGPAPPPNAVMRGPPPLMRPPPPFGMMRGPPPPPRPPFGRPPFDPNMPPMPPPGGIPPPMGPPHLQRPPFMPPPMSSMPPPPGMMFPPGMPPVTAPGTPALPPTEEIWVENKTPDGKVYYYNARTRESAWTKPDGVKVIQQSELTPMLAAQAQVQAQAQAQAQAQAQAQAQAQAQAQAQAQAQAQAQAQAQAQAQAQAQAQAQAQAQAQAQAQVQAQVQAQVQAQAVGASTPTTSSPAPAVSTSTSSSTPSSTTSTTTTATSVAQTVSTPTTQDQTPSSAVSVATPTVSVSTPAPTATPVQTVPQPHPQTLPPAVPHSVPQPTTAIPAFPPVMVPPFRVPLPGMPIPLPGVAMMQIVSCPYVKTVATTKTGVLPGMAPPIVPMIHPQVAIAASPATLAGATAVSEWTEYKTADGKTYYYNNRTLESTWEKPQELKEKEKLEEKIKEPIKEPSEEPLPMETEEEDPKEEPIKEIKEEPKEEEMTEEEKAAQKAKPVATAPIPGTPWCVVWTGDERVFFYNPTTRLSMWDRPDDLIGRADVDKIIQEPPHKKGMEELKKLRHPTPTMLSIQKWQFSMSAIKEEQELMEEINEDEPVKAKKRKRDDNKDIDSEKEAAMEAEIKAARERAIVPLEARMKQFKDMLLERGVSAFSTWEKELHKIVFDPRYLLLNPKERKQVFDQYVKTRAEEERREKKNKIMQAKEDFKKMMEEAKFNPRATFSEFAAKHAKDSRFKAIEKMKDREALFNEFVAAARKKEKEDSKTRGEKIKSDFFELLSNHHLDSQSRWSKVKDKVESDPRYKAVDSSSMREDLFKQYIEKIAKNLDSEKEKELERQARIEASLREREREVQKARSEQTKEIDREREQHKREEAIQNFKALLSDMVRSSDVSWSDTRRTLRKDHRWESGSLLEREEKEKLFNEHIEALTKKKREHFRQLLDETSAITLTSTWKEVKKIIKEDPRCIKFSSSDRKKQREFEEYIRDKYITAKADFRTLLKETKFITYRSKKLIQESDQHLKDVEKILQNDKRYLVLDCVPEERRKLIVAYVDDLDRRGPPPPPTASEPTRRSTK
UniProt Q9BTW9: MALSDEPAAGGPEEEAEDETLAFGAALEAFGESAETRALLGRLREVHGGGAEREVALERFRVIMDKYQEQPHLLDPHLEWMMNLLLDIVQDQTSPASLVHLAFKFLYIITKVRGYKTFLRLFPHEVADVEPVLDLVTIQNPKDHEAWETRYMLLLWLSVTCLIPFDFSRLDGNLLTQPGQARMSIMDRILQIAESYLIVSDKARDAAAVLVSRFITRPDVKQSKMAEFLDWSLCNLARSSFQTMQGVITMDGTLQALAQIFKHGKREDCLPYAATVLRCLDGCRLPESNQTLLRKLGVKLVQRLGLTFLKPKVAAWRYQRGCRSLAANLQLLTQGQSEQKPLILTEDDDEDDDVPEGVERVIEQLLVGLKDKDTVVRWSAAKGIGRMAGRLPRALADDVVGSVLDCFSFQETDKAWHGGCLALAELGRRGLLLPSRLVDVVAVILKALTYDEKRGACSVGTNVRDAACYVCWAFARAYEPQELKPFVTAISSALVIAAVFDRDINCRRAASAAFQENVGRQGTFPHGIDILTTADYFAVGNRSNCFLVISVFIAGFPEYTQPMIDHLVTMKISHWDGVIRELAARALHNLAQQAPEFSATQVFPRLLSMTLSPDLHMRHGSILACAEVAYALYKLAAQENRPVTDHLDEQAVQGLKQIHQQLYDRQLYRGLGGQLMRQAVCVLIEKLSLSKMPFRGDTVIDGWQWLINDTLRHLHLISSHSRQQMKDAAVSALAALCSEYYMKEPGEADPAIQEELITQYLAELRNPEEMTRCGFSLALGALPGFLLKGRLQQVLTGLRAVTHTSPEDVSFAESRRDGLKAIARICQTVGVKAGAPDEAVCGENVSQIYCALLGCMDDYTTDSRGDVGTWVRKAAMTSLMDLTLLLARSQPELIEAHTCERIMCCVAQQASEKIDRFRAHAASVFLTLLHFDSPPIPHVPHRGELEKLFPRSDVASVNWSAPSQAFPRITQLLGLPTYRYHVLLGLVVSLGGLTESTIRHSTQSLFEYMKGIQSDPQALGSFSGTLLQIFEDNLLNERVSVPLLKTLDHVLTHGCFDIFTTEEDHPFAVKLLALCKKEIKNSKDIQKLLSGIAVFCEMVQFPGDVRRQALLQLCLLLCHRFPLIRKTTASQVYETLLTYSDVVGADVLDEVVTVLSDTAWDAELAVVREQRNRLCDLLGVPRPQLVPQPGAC
UniProt P26639: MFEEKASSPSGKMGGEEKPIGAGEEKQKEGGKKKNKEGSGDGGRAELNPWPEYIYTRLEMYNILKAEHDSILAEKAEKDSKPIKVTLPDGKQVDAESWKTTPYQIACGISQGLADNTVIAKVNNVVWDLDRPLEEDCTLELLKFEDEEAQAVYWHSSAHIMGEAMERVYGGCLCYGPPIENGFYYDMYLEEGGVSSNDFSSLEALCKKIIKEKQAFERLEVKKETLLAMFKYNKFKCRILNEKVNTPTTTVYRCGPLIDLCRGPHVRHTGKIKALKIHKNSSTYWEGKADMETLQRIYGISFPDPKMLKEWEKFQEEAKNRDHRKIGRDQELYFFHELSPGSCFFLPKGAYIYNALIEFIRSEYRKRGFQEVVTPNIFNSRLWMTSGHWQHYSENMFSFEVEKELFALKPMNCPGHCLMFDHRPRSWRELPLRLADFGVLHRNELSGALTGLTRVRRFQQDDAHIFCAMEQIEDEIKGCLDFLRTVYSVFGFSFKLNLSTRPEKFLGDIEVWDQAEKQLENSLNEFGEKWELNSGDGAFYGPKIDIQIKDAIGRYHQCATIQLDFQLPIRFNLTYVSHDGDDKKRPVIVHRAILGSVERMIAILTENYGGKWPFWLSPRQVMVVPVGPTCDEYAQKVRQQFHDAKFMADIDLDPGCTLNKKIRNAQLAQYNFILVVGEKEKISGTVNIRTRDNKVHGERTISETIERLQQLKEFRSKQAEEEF
UniProt Q9NVG8: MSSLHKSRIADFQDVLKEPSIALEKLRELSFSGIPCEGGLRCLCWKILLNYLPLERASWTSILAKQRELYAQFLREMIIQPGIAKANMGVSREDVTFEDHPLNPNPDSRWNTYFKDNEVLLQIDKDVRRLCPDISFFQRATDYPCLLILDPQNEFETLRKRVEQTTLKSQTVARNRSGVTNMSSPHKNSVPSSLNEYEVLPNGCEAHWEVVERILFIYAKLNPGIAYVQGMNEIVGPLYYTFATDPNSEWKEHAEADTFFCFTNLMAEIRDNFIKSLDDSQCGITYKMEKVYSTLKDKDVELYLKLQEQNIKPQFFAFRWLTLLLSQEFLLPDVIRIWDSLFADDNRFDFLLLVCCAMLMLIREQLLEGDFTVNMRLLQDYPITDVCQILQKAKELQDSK
UniProt Q17R31: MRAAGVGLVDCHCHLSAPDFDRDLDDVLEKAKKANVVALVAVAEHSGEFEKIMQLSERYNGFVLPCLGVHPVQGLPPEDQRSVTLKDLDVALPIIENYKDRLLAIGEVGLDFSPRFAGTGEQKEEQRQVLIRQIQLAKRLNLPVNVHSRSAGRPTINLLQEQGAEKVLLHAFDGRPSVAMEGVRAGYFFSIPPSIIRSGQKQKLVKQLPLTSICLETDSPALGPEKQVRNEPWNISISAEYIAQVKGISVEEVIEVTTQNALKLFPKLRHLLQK

| Target | probe-labelled cysteine peptide fold change (10 µM) | probe-labelled cysteine peptide fold change (50 µM) |
| --- | --- | --- |
| TATDN1_Q6P1N9_261_DRNEPCHIIQILEIMSAVR (UniProt Q6P1N9) | 0.148 | 0.216 |
| TBL2_Q9Y4P3_391_FLASCGDR (UniProt Q9Y4P3) | -0.0331 | 0.114 |
| TBC1D23_Q9NUY8_86_DCLQFIDQLSVPEEK (UniProt Q9NUY8) | -0.0219 | 0.113 |
| TADA3_O75528_255_SEAQHEQPEDGCPFGALTQR (UniProt O75528) | 0.239 | -0.368 |
| TBC1D9B_Q66K14_1079_DCATEEDEPPAPELHQDAAR (UniProt Q66K14) | -0.105 | -0.118 |
| TATDN1_Q6P1N9_113+123_VVAIGECGLDFDRLQFCPK (UniProt Q6P1N9) | -0.0541 | -0.251 |
| TCEAL3_Q969E4_44_TECEGKREDEGEPGDEGQLEDEGSQEK (UniProt Q969E4) | -0.104 | -0.97 |
| TATDN1_Q6P1N9_253_KWESGHCLK (UniProt Q6P1N9) | -0.0435 | -0.161 |
| TCAF1_Q9Y4C2_576_IQIGCHTDDLTR (UniProt Q9Y4C2) | 0.111 | -0.0345 |
| TAP2_Q03519_641_VLILDEATSALDVQCEQALQDWNSR (UniProt Q03519) | -0.0445 | -0.173 |
| TARBP1_Q13395_24_ALLGALCQGEASAER (UniProt Q13395) | 0.00453 | -0.249 |
| TCERG1_O14776_1062_YLVLDCVPEER (UniProt O14776) | 0.0479 | 0.0794 |
| TBCD_Q9BTW9_420_AWHGGCLALAELGRR (UniProt Q9BTW9) | -0.0255 | -0.156 |
| TAF5_Q15542_632_IFAGHLADVNCTR (UniProt Q15542) | 0.228 | 0.44 |
| TCERG1_O14776_535_AKPVATAPIPGTPWCVVWTGDER (UniProt O14776) | 0.228 | 0.108 |
| TBC1D2B_Q9UPU7_554_TPVCSEDQGPTR (UniProt Q9UPU7) | -0.259 | -0.205 |
| TACO1_Q9BSH4_256_KLDSLGLCSVSCALEFIPNSK (UniProt Q9BSH4) | -0.242 | -0.347 |
| TAF6_P49848_130_VPLDVCLK (UniProt P49848) | -0.0404 | 0.0412 |
| TARS_P26639_413+417_ELFALKPMNCPGHCLMFDHRPR (UniProt P26639) | 0.00324 | -0.342 |
| TCF20_Q9UGU0_1918_YHYPCAIDADCLLHEENFSVR (UniProt Q9UGU0) | 0.317 | 0.504 |
| TARBP1_Q13395_592_VNESYFKPSPTCSSIGLHK (UniProt Q13395) | -0.115 | -0.851 |

| Target | probe-labelled cysteine peptide fold change (10 µM) | probe-labelled cysteine peptide fold change (50 µM) |
| --- | --- | --- |
| TBC1D4_O60343_885_LDYEEVGACQK (UniProt O60343) | -0.155 | 0.0406 |
| TBC1D13_Q9NVG8_261_EHAEADTFFCFTNLMAEIR (UniProt Q9NVG8) | 0.226 | 0.151 |
| TAF5L_O75529_431_IYAGHLADVDCVK (UniProt O75529) | -0.0188 | 0.0298 |
| TANC1_Q9C0D5_741_VVPVSLSELYLLQCNMK (UniProt Q9C0D5) | 0.208 | 0.25 |
| TATDN1_Q6P1N9_113_VVAIGECGLDFDR (UniProt Q6P1N9) | -0.00967 | 0.199 |
| TBC1D24_Q9ULP9_404_EVCGAYLSTDWSER (UniProt Q9ULP9) | 0.266 | 0.219 |
| TARS_P26639_467_RFQQDDAHIFCAMEQIEDEIK (UniProt P26639) | 0.126 | 0.326 |
| TATDN1_Q6P1N9_168_CVGGVVHSFDGTK (UniProt Q6P1N9) | 0.103 | -0.202 |
| TAPT1_Q6NXT6_562_DLLEIDRFTICGNR (UniProt Q6NXT6) | -0.129 | -0.0106 |
| TACC1_O75410_78_ESCDPSLGLAGPGAK (UniProt O75410) | -0.249 | -0.232 |
| TBC1D5_Q92609_706_QASSETPGCTDR (UniProt Q92609) | -0.154 | -0.0762 |
| SYVN1_Q86TM6_329_QQTCPTCR (UniProt Q86TM6) | 0.127 | 0.263 |
| TBL2_Q9Y4P3_375_VHGECIANLSFDITGR (UniProt Q9Y4P3) | -0.122 | -0.338 |
| TARS_P26639_137_VNNVVWDLDRPLEEDCTLELLK (UniProt P26639) | 0.0651 | 0.0458 |
| TARBP1_Q13395_1481_LIVVASLIDKPTNLGGLCR (UniProt Q13395) | -0.0174 | -0.254 |
| TATDN3_Q17R31_66_YNGFVLPCLGVHPVQGLPPEDQR (UniProt Q17R31) | 0.0121 | 1.04 |
| TAF6_P49848_141_AHWLSIEGCQPAIPENPPPAPK (UniProt P49848) | -0.235 | -0.242 |
| TBL3_Q12788_41_AQLDQTGQHLFCVCGTR (UniProt Q12788) | 0.148 | -0.0118 |
| TCEA1_P23193_212_KNVLCGNIPPDLFAR (UniProt P23193) | 0.154 | -0.139 |
| TANGO6_Q9C0B7_375_DICPQVLDLFHFQDK (UniProt Q9C0B7) | -0.36 | -0.218 |
| TBCB_Q99426_51_LELLVGSPASCMELELYGVDDK (UniProt Q99426) | 0.0991 | 0.421 |

Complete entries from above:
TAP2_Q03519_641_VLILDEATSALDVQCEQALQDWNSR (UniProt Q03519) is listed as probe-labelled cysteine peptide fold change (10 µM) = -0.0445; probe-labelled cysteine peptide fold change (50 µM) = -0.173
TBCD_Q9BTW9_420_AWHGGCLALAELGRR (UniProt Q9BTW9) is listed as probe-labelled cysteine peptide fold change (10 µM) = -0.0255; probe-labelled cysteine peptide fold change (50 µM) = -0.156
TCERG1_O14776_535_AKPVATAPIPGTPWCVVWTGDER (UniProt O14776) is listed as probe-labelled cysteine peptide fold change (10 µM) = 0.228; probe-labelled cysteine peptide fold change (50 µM) = 0.108
TBC1D13_Q9NVG8_261_EHAEADTFFCFTNLMAEIR (UniProt Q9NVG8) is listed as probe-labelled cysteine peptide fold change (10 µM) = 0.226; probe-labelled cysteine peptide fold change (50 µM) = 0.151

Later entries

| Target | probe-labelled cysteine peptide fold change (10 µM) | probe-labelled cysteine peptide fold change (50 µM) |
| --- | --- | --- |
| TBRG4_Q969Z0_335_LATDLLSLMPSLTSGEVAHCAK (UniProt Q969Z0) | 0.142 | 0.146 |
| TBCC_Q15814_6_MESVSCSAAAVR (UniProt Q15814) | -0.187 | -0.303 |
| TCF20_Q9UGU0_1795_SEDCGGGPR (UniProt Q9UGU0) | -0.142 | -0.0709 |
| SYNRG_Q9UMZ2_625_NPLNLADLDMFSSVNCSSEK (UniProt Q9UMZ2) | -0.205 | -0.356 |
| TBCE_Q15813_141_NCAVSCAGEK (UniProt Q15813) | -0.11 | -1.39 |
| TAP2_Q03519_540_PISQYEHCYLHSQVVSVGQEPVLFSGSVR (UniProt Q03519) | -0.152 | 0.336 |
| TBL1XR1_Q9BZK7_465_CVHIWNTQTGALVHSYR (UniProt Q9BZK7) | 0.151 | 0.312 |
| TBC1D1_Q86TI0_604_ANTLSHFPIECQEPPQPAR (UniProt Q86TI0) | -0.0467 | -0.164 |
| TBCD_Q9BTW9_234_MAEFLDWSLCNLAR (UniProt Q9BTW9) | 0.0778 | -0.148 |
| TATDN3_Q17R31_13_AAGVGLVDCHCHLSAPDFDRDLDDVLEK (UniProt Q17R31) | -0.0392 | -0.0637 |
| TARS_P26639_413_ELFALKPMNCPGHCLMFDHRPR (UniProt P26639) | 0.061 | -0.158 |
| TAF6_P49848_235_EITEACVGSCEAK (UniProt P49848) | -0.193 | -1.67 |
| TBCD_Q9BTW9_457_RGACSVGTNVR (UniProt Q9BTW9) | -0.156 | 0.105 |
| TARS_P26639_343_IGRDQELYFFHELSPGSCFFLPK (UniProt P26639) | 0.0409 | 0.0137 |
| TBCD_Q9BTW9_899_SQPELIEAHTCER (UniProt Q9BTW9) | 0.0463 | -0.24 |
| TANC1_Q9C0D5_985_LVCLLTK (UniProt Q9C0D5) | -0.179 | -0.214 |
| SZT2_Q5T011_1460_TVPSNPHYFFYCPPSSR (UniProt Q5T011) | 0.093 | 0.233 |
| TAOK2_Q9UL54_623_EQLQQCQAEEEAGLLRR (UniProt Q9UL54) | -0.0287 | -0.14 |
| TBC1D5_Q92609_219_QGMHELLAPIVFVLHCDHQAFLHASESAQPSEEMK (UniProt Q92609) | 0.363 | 0.126 |
| TAOK3_Q9H2K8_795_LDEAQEAECQALR (UniProt Q9H2K8) | 0.0475 | 0.356 |
| TBC1D9B_Q66K14_340_EEDACHLIIPLR (UniProt Q66K14) | 0.279 | 0.292 |

| Target | probe-labelled cysteine peptide fold change (10 µM) | probe-labelled cysteine peptide fold change (50 µM) |
| --- | --- | --- |
| TBC1D23_Q9NUY8_399_QSIESGSIAGGEHLCFMGSGR (UniProt Q9NUY8) | -0.0826 | 0.167 |
| TBL2_Q9Y4P3_335_FEEAAGAAPCR (UniProt Q9Y4P3) | -0.0079 | 0.135 |
| TBC1D22B_Q9NU19_206_CSWPGVPR (UniProt Q9NU19) | -0.0108 | 0.205 |
| SZT2_Q5T011_865_HTCVVQYILFPPHSTSTK (UniProt Q5T011) | -0.141 | 0.0925 |
| TBL2_Q9Y4P3_95_SHSGNISCMDFSSNGK (UniProt Q9Y4P3) | -0.0987 | 0.0352 |
| TARS2_Q9BW92_603_LLGVLAESCGGK (UniProt Q9BW92) | 0.0307 | 0.165 |
| TAOK2_Q9UL54_1103_ALQGCGAVGDR (UniProt Q9UL54) | -0.262 | 0.101 |
| TACC1_O75410_467_LITSGCK (UniProt O75410) | -0.632 | -0.628 |
| TALDO1_P37837_250_ALAGCDFLTISPK (UniProt P37837) | 0.0217 | 0.0297 |
| TCEAL4_Q96EI5_34_MENEEQPQDERKPEVTCTLEDK (UniProt Q96EI5) | 0.114 | -0.277 |
| TAP2_Q03519_362_EALEQCR (UniProt Q03519) | -0.138 | -0.0808 |
| SYNE3_Q6ZMZ3_51_ICQLEPEGR (UniProt Q6ZMZ3) | -0.274 | -0.146 |
| TBL2_Q9Y4P3_335_TGRFEEAAGAAPCR (UniProt Q9Y4P3) | -0.0445 | -0.357 |
| TATDN1_Q6P1N9_226_LMIETDAPWCGVK (UniProt Q6P1N9) | -0.116 | -0.0967 |
| TAF12_Q16514_143_ACTTEAHK (UniProt Q16514) | -0.109 | -0.272 |
| TAF2_Q6P1X5_690_LALTDILEQEQCFYR (UniProt Q6P1X5) | -0.214 | 0.132 |
| TACC3_Q9Y6A5_426_SGCSEAQPPESPETR (UniProt Q9Y6A5) | -0.1 | -0.542 |
| TACC1_O75410_715_CAQDYLAR (UniProt O75410) | -0.432 | -0.213 |
| TCF20_Q9UGU0_1163_CLMSSDGLPNK (UniProt Q9UGU0) | -0.08 | -0.485 |
| TAF15_Q92804_379_NSCNQCNEPRPEDSR (UniProt Q92804) | 0.0599 | 0.496 |
| TANK_Q92844_183_LNIPDTATETQCSVPIQCTDK (UniProt Q92844) | -0.166 | -0.156 |
